Among all 390,000 compounds or so, about 760 (0.19%) were called active. Inconclusive means that the source gave no clear call. Such entries were picked first, then a sample of the others. The call rests on the fitted dose curve; in most records, active means well fitted inhibition curve with a large enough effect; inconclusive means small, poorly fitted or top-dose-only effect; inactive means flat fitted curve, though single readings scatter. Where the call is inconclusive, the potency comes from a doubtful curve fit.
test: qHTS for Inhibitors of Vif-A3F Interactions: qHTS; details: HeLa A3F-eYFP + Vif (tagged APOBEC3F with the HIV-1 protein that degrades it), YFP fluorescence increase; series mostly up to 46.1 µM; activity, negative = active: at the top concentration; further: nearly all actives have a fitted effect of over 65% in size; on activity, negative = active: % of control where 0% means no effect
Summary of the method: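 Fluorescence increase (Ex 488/Em 500-530) after overnight compound treatment at 37 deg C flags inhibition of Vif-driven A3F-eYFP loss in stable HeLa A3F-eYFP/Vif cells seeded overnight beforehand.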
Potency means the concentration at half of the fitted maximal effect.

Q: For `NNC(=O)c1sc2cc(C(F)(F)F)cnc2c1-c1cccnc1`, which Potency is on record?
A: The Potency was inconclusive: 11.2 µM [inhibitor, partial curve, poor fit].

Q: With `Cc1ccc2c(Cl)c(C)c(N3CCCC3)nc2n1` as the molecule, how does the Potency read?
A: Its Potency is active: 22.4 µM.

Q: With `Cc1ccc(NC(=O)N2CCC(CN3CCCCCC3)CC2)c(Cl)c1` as the molecule, how does the “activity, negative = active” value read?
A: Its value is inactive: 1.13%.

Q: For `Cc1ccc(C)c(Nc2nc3ccc(C)cc3n3cnnc23)c1`, which Potency is on record?
A: The Potency was inconclusive: 35.5 µM [inhibitor, single point].

Q: Which “activity, negative = active” value does the source give for `COC(=O)c1[nH]c2c(c1C)C(=O)CC(c1ccc(OC)c(OC)c1)C2` (stereo not drawn) here?
A: Its value is inactive: -0.993%.

Q: Which Potency does the source give for `COc1ccc(-c2nc(SCC(=O)Nc3ccc4c(c3)OCO4)c(-c3ccc(F)cc3)[nH]2)cc1OC` here?
A: Its Potency is inconclusive: 35.5 µM [inhibitor, single point].

Q: For `O=C1C(Cc2ccccc2)Nc2ncnc(N3CCOCC3)c2N1Cc1ccc(Cl)cc1` (stereo not drawn), which “activity, negative = active” value is on record?
A: Its value is inactive: -4.53%.

Q: Which Potency does the source give for `CCn1c(=O)c2sccc2n2c(CCCC(=O)NCc3cccnc3)nnc12` here?
A: Its Potency is inconclusive: 5.62 µM [inhibitor, single point].

Q: For `Cc1cc(NS(=O)(=O)c2ccc(NC(=S)NC(=O)c3ccccc3)cc2)no1`, which “activity, negative = active” value is on record?
A: Its value is inactive: -1.91%.

Q: For `COc1ccc(NS(=O)(=O)c2cccc(C(=O)N/N=C/c3ccc4c(c3)OCCO4)c2)cc1`, which Potency is on record?
A: The Potency was inconclusive: 6.31 µM [inhibitor, single point].

Q: For `COc1ccc(-c2csc(NC(C)c3nc4cc(Cl)c(Cl)cc4n3CCCO)n2)cc1` (stereo not drawn), which Potency is on record?
A: The Potency was inconclusive: 35.5 µM [inhibitor, single point].

Q: For `CCCCCN1CC(=O)N2[C@@H](Cc3c([nH]c4ccccc34)C2(C)C)C1=O`, which Potency is on record?
A: Its Potency is inconclusive: 15.8 µM [inhibitor, partial curve, poor fit].

Q: For `S=C(NCCCc1ccccc1)Nc1ccccc1Cl`, which Potency is on record?
A: The Potency was inconclusive: 35.5 µM [inhibitor, single point].

Q: With `Cc1oc2c(cc(NS(=O)(=O)c3ccc(F)cc3)c3ccccc32)c1C(=O)O` as the molecule, how does the Potency read?
A: Its Potency is inconclusive: 10 µM [inhibitor, partial curve, poor fit].

Q: Which Potency does the source give for `Nc1nc(SCc2nnc(SCC(=O)O)n2-c2ccccc2)nc2sc3c(c12)CCCC3` here?
A: Its Potency is inconclusive: 35.5 µM [inhibitor, single point].

Q: For `Cc1ccc(CSc2nc3ccncc3n2Cc2nc(-c3ccc(Cl)cc3)oc2C)cc1`, which “activity, negative = active” value is on record?
A: The value was inactive: 1.42%.

Q: With `CC(C)(C)c1nnc2sc(SCC(O)=C(C#N)c3nc4ccccc4[nH]3)nn2c1=O` as the molecule, how does the Potency read?
A: Its Potency is inconclusive: 14.1 µM [inhibitor, partial curve, poor fit].

Q: Which Potency does the source give for `CN(CC(=O)NCc1ccc(F)cc1)Cc1ccc(Br)cc1` here?
A: Its Potency is inconclusive: 2.82 µM [inhibitor, full curve, poor fit].

Q: Which “activity, negative = active” value does the source give for `CN1CCc2nc3sc(C(=O)Nc4c(F)cccc4F)c(N)c3cc2C1` here?
A: Its value is inactive: -15%.

Q: For `COc1ccccc1NC(=O)Nc1nc(CC(=O)NCc2c(F)cccc2F)cs1`, which “activity, negative = active” value is on record?
A: The value was inactive: 4.49%.

Q: For `Cc1ccc(-c2cnc(NCc3c(F)cccc3Cl)n2C)cc1`, which Potency is on record?
A: The Potency was inconclusive: 22.4 µM [inhibitor, single point].

Q: Which Potency does the source give for `CN(CCOc1ccccc1)CC(=O)Nc1cccc(C#N)c1` here?
A: Its Potency is inconclusive: 3.16 µM [inhibitor, single point].

Q: For `Cc1cccc(CNc2ncnc3ccc(-c4ccc5c(c4)OCCO5)cc23)c1`, which “activity, negative = active” value is on record?
A: Its value is inactive: -9.11%.

Q: For `N#Cc1c(NC(=O)CN2CCOCC2)oc(-c2ccccc2)c1-c1ccccc1`, which “activity, negative = active” value is on record?
A: Its value is inactive: -2.13%.

Q: With `COCCNc1nc2nonc2nc1N(C)Cc1cccc2cnccc12` as the molecule, how does the “activity, negative = active” value read?
A: The value was inactive: -4.47%.

Q: For `CCC(=O)OCCNc1cc(Sc2nc3ccccc3[nH]2)c2nonc2c1[N+](=O)[O-]`, which Potency is on record?
A: The Potency was inconclusive: 4.47 µM [inhibitor, single point].

Q: For `Cc1cc(N=Cc2c(O)n(-c3ccc4c(c3)OCO4)c(=O)c3ccccc23)ccn1`, which Potency is on record?
A: Its Potency is active: 25.1 µM.

Q: With `Nc1c(Cl)cc(C2=NCCn3c2c2ccc([N+](=O)[O-])cc2[n+]3[O-])cc1Cl` as the molecule, how does the “activity, negative = active” value read?
A: The value was inactive: -14.1%.

Q: For `Cc1ccc(NC(=O)CSc2nc3c([nH]c4ccccc43)c(=O)n2C)cc1`, which Potency is on record?
A: Its Potency is inconclusive: 15.8 µM [inhibitor, partial curve, poor fit].

Q: Which Potency does the source give for `CCN1CCN(C(c2cccnc2)c2cc(Cl)c3cccnc3c2O)CC1` (stereo not drawn) here?
A: The Potency was inconclusive: 35.5 µM [inhibitor, single point].

Q: Which Potency does the source give for `N=c1c(S(=O)(=O)c2ccc(Cl)cc2)cc2c(=O)n3ccccc3nc2n1Cc1ccco1` here?
A: The Potency was inconclusive: 22.4 µM [inhibitor, single point].

Q: With `CCN1CCN(c2ccc(S(=O)(=O)N3CCCCC3)cc2NC(=O)COc2ccc(F)cc2Cl)CC1` as the molecule, how does the “activity, negative = active” value read?
A: The value was inactive: 0.0816%.

Q: For `O=C(O)COc1cnc2ccccc2n1`, which “activity, negative = active” value is on record?
A: Its value is inactive: -3.75%.

Q: For `S=C(Nc1ccc(Cl)c(Cl)c1)NN1CCOCC1`, which Potency is on record?
A: Its Potency is inconclusive: 35.5 µM [inhibitor, single point].

Q: Which Potency does the source give for `CCOc1ccc(/C=N/Nc2nc(C)cs2)c(O)c1` here?
A: Its Potency is inconclusive: 25.1 µM [inhibitor, single point].

Q: Which “activity, negative = active” value does the source give for `O=S(=O)(NN1CCOCC1)c1ccc(Br)s1` here?
A: The value was inactive: -10%.

Q: Which Potency does the source give for `O=C(Nc1cccc([N+](=O)[O-])c1)ONC1=NCCCCC1` here?
A: Its Potency is inconclusive: 7.08 µM [inhibitor, partial curve, poor fit].

Q: For `Cc1sc2nc(CSc3nnnn3-c3ccc(Cl)cc3)[nH]c(=O)c2c1C`, which Potency is on record?
A: Its Potency is active: 31.6 µM.

Q: For `N#Cc1ccc(-c2ccccc2)nc1SCC(=O)c1cc2ccccc2oc1=O`, which Potency is on record?
A: Its Potency is inconclusive: 22.4 µM [inhibitor, single point].

Q: For `CCN1CCN(C(=S)NC(=O)c2cccc(Br)c2)CC1`, which Potency is on record?
A: Its Potency is inconclusive: 20 µM [inhibitor, partial curve, poor fit].

Q: For `CC1CCN(c2c(NCc3ccc(C(=O)NCCc4ccc(Cl)cc4)cc3)c(=O)c2=O)CC1`, which Potency is on record?
A: Its Potency is inconclusive: 35.5 µM [inhibitor, single point].

Q: With `Cc1cc2cc3c(=O)[nH]c(=O)cc-3n(CC(O)C(O)C(O)CO)c2cc1C` (stereo not drawn) as the molecule, how does the Potency read?
A: The Potency was inconclusive: 35.5 µM [inhibitor, single point].

Q: With `CCN(CC)CCOC(=O)c1ccc(NC(=O)c2cc3cccc(OC)c3oc2=O)cc1` as the molecule, how does the “activity, negative = active” value read?
A: The value was inactive: -1.49%.

Q: Which “activity, negative = active” value does the source give for `Cn1c(SCC(=O)NC2CC2)nnc1-c1ccccc1` here?
A: Its value is inactive: -22.3%.

Q: With `C[C@](N)(Cc1ccc(O)c(O)c1)C(=O)O` as the molecule, how does the “activity, negative = active” value read?
A: The value was inactive: 5.4%.

Q: With `COc1cc(C(=O)Nc2ccc(S(=O)(=O)Nc3nccc(C)n3)cc2)c([N+](=O)[O-])cc1OC` as the molecule, how does the Potency read?
A: Its Potency is inconclusive: 2 µM [inhibitor, full curve, poor fit].

Q: With `COc1cc(OC)cc(C(=O)OCC(=O)Nc2nnc(-c3ccccc3)o2)c1` as the molecule, how does the Potency read?
A: The Potency was inconclusive: 35.5 µM [inhibitor, single point].

Q: For `COc1ccc(OCc2nc(C#N)c(NCc3ccccc3Cl)o2)cc1`, which “activity, negative = active” value is on record?
A: Its value is inactive: -15.6%.

Q: Which “activity, negative = active” value does the source give for `Cc1cccc(CN2CCC(CNC(=O)Nc3ccccc3F)CC2)c1` here?
A: Its value is inactive: -13.4%.

Q: Which Potency does the source give for `Cc1ccc(NC(=O)CSc2nc3[nH]ncc3c(=O)[nH]2)cc1Cl` here?
A: Its Potency is inconclusive: 14.1 µM [inhibitor, partial curve, poor fit].

Q: With `Cn1cnnc1Sc1nc2ccccc2nc1NS(=O)(=O)c1ccccc1` as the molecule, how does the Potency read?
A: Its Potency is inconclusive: 28.2 µM [inhibitor, single point].

Q: Which Potency does the source give for `CC(=O)Nc1ccc(S(=O)(=O)Nc2nc3n(n2)C(c2ccccc2)C=C(c2ccc(Cl)cc2)N3)cc1` (stereo not drawn) here?
A: Its Potency is inconclusive: 10 µM [inhibitor, partial curve, poor fit].

Q: With `CC(/C=C/c1ccccc1)=N\NC(=S)NC(C)C` as the molecule, how does the Potency read?
A: Its Potency is inconclusive: 5.62 µM [inhibitor, single point].

Q: With `CC(=O)Nc1ccc(Nc2nc(-c3cc4ccccc4oc3=O)cs2)cc1` as the molecule, how does the Potency read?
A: The Potency was inconclusive: 22.4 µM [inhibitor, single point].

Q: Which “activity, negative = active” value does the source give for `CCOC(=O)c1c(C)[nH]c(C)c1S(=O)(=O)N1CCCC(C(=O)NCc2ccc(C)cc2)C1` (stereo not drawn) here?
A: Its value is inactive: -5.7%.

Q: For `NC(=O)c1nsc(C(=O)N(c2cccc(F)c2)C(C(=O)NC2CCCC2)c2ccco2)c1N` (stereo not drawn), which Potency is on record?
A: Its Potency is inconclusive: 11.2 µM [inhibitor, partial curve, poor fit].

Q: With `COc1ccc(-c2nnc(C3CCN(S(=O)(=O)c4ccccc4)CC3)o2)cc1` as the molecule, how does the Potency read?
A: Its Potency is inconclusive: 22.4 µM [inhibitor, single point].

Q: For `COc1ccc(-n2c(=O)c3ccccc3n(CC(=O)NCC3CCCO3)c2=O)cc1` (stereo not drawn), which Potency is on record?
A: The Potency was inconclusive: 35.5 µM [inhibitor, single point].

Q: Which Potency does the source give for `CCOC(=O)C(C(=O)OCC)c1cc(Br)c2noc3c2c1C(=O)c1ccccc1-3` here?
A: The Potency was inconclusive: 6.31 µM [inhibitor, partial curve, poor fit].

Q: For `C=CCSc1nnc(N2C(=O)C(O)=C(C(=O)c3ccco3)C2c2ccc(F)cc2)s1` (stereo not drawn), which Potency is on record?
A: Its Potency is inconclusive: 35.5 µM [inhibitor, partial curve, poor fit].

Q: Which “activity, negative = active” value does the source give for `Cc1ccc(SCCCCN2CCOCC2)cc1` here?
A: The value was inactive: 6.88%.

Q: With `COc1ccc(/C=C2/SC(=S)N(CCCC(=O)Nc3ccc(O)cc3)C2=O)cc1` as the molecule, how does the Potency read?
A: Its Potency is inconclusive: 35.5 µM [inhibitor, single point].

Q: For `COc1ccccc1NC(c1cccnc1)c1ccc2cccnc2c1O` (stereo not drawn), which Potency is on record?
A: The Potency was inconclusive: 15.8 µM [inhibitor, partial curve, poor fit].

Q: For `CN(CCOc1ccccc1)C(=O)CCc1nc2sc3c(c2c(=O)[nH]1)CCCC3`, which Potency is on record?
A: Its Potency is inconclusive: 35.5 µM [inhibitor, single point].

Q: Which Potency does the source give for `O=C(Cc1ccc(Cl)cc1)NC(=S)Nc1ccccc1N1CCOCC1` here?
A: The Potency was inconclusive: 35.5 µM [inhibitor, single point].

Q: For `Nc1cc(S(=O)(=O)N2CCOCC2)ccc1N1CCCCC1`, which “activity, negative = active” value is on record?
A: Its value is inactive: 0.269%.

Q: For `O=S(=O)(Oc1ccccc1-c1ccccc1)c1ccccc1`, which Potency is on record?
A: The Potency was inconclusive: 35.5 µM [inhibitor, single point].

Q: For `CC(C)CCn1c(O)c(N=Nc2ccccn2)c2ccccc21`, which Potency is on record?
A: The Potency was inconclusive: 12.6 µM [inhibitor, partial curve, poor fit].

From PubChem BioAssay AID602313 (National Center for Advancing Translational Sciences (NCATS), 2012)
